# The other results are listed elsewhere or left out.
# Sequences of proteins named here, by UniProt entry; tags and fusion partners are left off. A change or cut given only in a name is not applied to a line headed by its entry.
# UniProt O94979: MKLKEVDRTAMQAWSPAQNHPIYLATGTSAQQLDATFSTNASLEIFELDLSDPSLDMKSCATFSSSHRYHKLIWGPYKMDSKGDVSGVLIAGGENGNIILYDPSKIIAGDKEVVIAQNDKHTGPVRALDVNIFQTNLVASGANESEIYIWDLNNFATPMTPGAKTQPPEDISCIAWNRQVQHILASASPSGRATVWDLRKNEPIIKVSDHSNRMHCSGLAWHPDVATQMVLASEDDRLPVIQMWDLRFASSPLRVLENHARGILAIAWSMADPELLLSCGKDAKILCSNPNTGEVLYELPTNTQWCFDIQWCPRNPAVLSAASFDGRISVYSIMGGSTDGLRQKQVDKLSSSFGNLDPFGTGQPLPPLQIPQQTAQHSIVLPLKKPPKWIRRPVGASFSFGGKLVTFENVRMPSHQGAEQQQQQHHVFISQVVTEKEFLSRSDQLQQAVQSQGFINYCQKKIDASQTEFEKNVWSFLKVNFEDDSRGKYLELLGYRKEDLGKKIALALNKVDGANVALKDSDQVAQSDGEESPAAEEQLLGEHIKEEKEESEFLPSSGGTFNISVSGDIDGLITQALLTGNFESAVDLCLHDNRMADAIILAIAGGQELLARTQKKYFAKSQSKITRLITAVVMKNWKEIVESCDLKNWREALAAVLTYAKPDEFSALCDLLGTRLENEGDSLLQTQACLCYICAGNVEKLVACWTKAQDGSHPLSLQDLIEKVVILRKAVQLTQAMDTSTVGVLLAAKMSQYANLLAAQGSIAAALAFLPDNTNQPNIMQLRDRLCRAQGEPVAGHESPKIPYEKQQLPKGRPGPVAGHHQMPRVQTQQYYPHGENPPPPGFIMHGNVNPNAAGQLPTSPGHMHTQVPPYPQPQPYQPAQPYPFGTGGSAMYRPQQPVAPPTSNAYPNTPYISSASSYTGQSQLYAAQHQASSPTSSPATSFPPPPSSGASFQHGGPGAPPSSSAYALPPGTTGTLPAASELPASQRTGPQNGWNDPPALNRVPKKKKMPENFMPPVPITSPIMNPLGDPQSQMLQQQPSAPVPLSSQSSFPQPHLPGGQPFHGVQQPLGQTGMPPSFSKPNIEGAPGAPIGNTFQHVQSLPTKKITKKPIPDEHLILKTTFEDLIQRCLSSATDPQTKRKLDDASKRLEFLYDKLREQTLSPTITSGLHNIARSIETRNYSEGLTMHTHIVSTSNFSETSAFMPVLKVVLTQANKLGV
# UniProt Q15020: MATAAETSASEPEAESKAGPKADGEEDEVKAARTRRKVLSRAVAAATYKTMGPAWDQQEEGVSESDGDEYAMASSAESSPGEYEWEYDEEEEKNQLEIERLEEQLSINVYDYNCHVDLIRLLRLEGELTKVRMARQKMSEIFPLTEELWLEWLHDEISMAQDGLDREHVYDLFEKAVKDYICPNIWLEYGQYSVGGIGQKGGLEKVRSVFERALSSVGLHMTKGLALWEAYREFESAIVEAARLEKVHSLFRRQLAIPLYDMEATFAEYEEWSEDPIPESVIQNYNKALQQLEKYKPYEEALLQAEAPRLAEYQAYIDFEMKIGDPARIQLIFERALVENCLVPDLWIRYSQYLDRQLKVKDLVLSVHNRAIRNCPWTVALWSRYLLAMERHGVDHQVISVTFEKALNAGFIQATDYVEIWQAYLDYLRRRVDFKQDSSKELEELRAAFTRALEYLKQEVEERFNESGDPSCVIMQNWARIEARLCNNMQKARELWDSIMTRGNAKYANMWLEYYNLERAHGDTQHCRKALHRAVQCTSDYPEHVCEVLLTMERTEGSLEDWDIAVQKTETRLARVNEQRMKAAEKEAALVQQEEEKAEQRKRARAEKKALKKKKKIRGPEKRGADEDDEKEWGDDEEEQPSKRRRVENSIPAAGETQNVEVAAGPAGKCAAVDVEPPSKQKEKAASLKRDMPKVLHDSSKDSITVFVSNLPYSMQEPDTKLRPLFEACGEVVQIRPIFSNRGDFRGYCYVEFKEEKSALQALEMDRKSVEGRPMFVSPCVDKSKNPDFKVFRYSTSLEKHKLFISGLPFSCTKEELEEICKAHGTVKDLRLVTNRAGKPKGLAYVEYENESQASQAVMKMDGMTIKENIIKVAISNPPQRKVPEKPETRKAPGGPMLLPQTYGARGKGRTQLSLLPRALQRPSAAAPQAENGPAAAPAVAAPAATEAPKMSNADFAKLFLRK
# UniProt O15027: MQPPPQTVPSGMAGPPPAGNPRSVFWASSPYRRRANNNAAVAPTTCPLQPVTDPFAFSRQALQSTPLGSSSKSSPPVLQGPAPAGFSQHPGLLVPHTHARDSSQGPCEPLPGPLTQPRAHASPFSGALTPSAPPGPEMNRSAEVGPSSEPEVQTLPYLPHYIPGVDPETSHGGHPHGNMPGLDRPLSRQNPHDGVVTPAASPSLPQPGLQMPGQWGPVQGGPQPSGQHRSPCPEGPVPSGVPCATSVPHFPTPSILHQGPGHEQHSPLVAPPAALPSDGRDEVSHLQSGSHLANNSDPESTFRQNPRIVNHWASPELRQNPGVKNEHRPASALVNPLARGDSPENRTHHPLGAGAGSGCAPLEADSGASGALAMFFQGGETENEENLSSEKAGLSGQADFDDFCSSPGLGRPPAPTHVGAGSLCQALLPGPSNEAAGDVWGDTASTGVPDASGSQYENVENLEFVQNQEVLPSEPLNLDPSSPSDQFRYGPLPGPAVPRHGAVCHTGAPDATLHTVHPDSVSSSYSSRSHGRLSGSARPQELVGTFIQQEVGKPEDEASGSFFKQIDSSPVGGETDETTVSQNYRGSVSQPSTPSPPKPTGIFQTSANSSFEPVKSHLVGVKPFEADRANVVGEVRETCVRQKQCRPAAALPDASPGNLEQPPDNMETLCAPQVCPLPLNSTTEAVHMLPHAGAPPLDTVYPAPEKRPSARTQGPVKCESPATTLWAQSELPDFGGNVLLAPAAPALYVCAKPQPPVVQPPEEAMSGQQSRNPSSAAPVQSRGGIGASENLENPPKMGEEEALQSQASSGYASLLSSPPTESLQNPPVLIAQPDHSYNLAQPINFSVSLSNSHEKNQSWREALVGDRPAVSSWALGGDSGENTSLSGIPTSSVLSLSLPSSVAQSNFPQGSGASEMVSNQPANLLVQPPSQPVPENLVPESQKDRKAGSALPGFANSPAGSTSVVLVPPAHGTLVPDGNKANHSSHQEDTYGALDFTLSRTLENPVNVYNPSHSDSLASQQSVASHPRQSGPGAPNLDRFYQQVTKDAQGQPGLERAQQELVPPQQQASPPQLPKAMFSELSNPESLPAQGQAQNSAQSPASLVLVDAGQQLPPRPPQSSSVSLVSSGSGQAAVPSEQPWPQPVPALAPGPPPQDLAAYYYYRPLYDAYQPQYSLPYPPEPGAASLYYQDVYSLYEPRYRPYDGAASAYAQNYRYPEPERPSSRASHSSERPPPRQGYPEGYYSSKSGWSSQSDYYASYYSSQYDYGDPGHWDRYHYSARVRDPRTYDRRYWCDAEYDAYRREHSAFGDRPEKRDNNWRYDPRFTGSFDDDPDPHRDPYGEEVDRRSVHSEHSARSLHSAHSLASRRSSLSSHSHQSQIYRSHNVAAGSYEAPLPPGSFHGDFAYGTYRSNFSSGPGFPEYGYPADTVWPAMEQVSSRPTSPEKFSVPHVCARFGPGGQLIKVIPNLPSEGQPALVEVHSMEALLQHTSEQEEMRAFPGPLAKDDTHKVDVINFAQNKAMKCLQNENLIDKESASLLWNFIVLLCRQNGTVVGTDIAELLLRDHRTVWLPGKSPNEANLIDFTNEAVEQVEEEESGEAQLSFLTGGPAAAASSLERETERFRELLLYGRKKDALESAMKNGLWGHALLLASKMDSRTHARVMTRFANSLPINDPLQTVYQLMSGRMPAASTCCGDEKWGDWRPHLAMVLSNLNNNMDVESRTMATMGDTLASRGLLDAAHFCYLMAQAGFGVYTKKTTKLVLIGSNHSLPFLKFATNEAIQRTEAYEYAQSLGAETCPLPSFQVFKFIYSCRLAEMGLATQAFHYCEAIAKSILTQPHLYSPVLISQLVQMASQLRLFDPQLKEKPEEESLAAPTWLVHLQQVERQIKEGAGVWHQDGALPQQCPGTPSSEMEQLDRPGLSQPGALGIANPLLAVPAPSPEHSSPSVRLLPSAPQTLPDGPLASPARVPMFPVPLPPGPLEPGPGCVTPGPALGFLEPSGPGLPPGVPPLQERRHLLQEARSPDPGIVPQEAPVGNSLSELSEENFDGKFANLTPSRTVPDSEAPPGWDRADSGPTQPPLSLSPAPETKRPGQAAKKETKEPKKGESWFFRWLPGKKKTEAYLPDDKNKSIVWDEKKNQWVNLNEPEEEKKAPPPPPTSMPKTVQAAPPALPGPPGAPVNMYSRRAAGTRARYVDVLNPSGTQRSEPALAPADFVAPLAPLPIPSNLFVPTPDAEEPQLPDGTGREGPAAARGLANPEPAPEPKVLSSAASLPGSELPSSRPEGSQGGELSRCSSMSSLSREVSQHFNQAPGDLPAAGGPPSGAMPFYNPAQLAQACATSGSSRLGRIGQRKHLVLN
# UniProt Q9Y6B6: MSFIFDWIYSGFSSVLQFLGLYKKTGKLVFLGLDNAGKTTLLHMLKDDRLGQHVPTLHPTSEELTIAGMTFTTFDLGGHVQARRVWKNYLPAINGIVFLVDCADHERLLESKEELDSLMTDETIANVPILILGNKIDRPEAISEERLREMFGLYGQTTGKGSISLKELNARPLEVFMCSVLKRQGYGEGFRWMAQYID
# UniProt P53992: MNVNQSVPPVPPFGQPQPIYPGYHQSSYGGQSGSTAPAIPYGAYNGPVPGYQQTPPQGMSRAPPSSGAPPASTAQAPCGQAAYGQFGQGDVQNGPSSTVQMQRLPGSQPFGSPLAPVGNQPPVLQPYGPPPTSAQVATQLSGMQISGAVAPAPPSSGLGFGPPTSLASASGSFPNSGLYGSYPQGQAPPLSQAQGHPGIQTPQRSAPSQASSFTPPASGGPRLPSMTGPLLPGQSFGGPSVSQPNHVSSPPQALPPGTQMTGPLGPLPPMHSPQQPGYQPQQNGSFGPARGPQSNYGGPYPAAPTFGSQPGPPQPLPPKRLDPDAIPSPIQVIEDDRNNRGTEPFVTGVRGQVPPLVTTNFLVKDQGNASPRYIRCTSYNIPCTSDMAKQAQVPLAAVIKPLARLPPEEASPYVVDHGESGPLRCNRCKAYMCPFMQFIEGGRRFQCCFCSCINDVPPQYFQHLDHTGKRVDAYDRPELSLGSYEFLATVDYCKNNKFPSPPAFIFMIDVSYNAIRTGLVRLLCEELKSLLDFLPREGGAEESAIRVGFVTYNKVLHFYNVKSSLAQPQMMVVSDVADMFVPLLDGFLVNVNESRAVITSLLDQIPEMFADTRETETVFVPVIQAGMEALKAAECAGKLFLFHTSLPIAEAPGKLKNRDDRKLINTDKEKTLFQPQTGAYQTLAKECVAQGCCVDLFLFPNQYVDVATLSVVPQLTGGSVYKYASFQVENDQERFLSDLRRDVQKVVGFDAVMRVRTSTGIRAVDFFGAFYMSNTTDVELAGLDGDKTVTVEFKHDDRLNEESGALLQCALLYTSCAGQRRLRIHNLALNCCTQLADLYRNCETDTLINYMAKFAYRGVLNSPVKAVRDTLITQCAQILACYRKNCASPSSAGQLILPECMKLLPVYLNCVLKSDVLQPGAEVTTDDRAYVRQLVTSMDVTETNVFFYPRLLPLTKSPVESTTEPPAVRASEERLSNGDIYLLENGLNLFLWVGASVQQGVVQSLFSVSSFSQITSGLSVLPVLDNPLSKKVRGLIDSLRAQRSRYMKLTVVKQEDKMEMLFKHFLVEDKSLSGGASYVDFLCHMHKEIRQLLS
# UniProt Q9NR31: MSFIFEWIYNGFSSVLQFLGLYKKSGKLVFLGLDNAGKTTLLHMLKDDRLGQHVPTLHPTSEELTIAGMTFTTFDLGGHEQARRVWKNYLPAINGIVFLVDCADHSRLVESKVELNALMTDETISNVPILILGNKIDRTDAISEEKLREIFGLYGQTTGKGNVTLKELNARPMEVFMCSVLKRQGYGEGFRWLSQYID
# UniProt Q9Y512: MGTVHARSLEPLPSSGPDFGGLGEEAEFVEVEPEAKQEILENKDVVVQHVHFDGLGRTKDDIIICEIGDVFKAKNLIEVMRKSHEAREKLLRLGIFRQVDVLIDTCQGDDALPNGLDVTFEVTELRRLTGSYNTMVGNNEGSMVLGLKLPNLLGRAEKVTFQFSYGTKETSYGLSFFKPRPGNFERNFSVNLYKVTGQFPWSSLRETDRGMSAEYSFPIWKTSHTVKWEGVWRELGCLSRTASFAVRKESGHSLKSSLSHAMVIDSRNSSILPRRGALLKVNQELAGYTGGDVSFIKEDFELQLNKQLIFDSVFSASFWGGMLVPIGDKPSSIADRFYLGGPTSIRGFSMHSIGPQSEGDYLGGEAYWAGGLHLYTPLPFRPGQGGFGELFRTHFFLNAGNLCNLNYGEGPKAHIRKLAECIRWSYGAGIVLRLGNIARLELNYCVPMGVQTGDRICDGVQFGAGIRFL
# Compound: CC1Cc2ccccc2N1C(=O)C1CCCN(C1)C(=O)CCl (mixture of isomers) [TRIM25 ligand 11 (diastereomer mixture)]
# Assay: probe-labelled cysteine peptide fold change vs DMSO (competition) (log2 fold change); higher = less target engagement (more negative = stronger competition)
# Conditions: THP-1, incubation time: 4 h
# 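Further: competitive chemoproteomic profiling in live THP-1 cells with an iodoacetamide desthiobiotin (IA-DTB) probe, comparing probe-labelled peptide intensities in compound-treated cells against DMSO-treated controls.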
Target,probe-labelled cysteine peptide fold change (10 µM),probe-labelled cysteine peptide fold change (50 µM)
SEC24D_O94855_1021+1022_GLYGGSSYVDFLCCVHK (UniProt O94855),-0.0116,-0.0443
SDR39U1_Q9NRG7_78_ITWDELAASGLPSCDAAVNLAGENILNPLRR (UniProt Q9NRG7),-0.0975,0.0842
SCP2_P22307_495_ADCTITMADSDFLALMTGK (UniProt P22307),0.0353,-0.0602
SEC63_Q9UGP8_295_NEPPLTCPYSLK (UniProt Q9UGP8),-0.101,-0.151
SEH1L_Q96EE3_49_SESGDWHCTASWK (UniProt Q96EE3),0.19,-0.0142
SEC24B_O95487_1103_VYAMCQIK (UniProt O95487),-0.00811,0.0235
SDSL_Q96GA7_69_HLVCSSGGNAGIAAAYAAR (UniProt Q96GA7),0.124,0.181
SCYL1_Q96KG9_503_VAGVLGFAATHNLYSMNDCAQK (UniProt Q96KG9),-0.221,-0.328
SBF1_O95248_601_CLAQELHLHVQQNR (UniProt O95248),0.05,0.0832
SCRIB_Q14160_22_HCSLQAVPEEIYR (UniProt Q14160),0.309,-0.163
SEL1L_Q9UBV2_141_EYDECTSDGR (UniProt Q9UBV2),0.0461,0.103
SEC31A_O94979_644_EIVESCDLK (UniProt O94979),0.0885,0.0874
SAMSN1_Q9NSI8_165_DSFRLDDDGPYSGPFCGR (UniProt Q9NSI8),-0.0612,0.0886
SAP30L_Q9HAJ7_74_HLYICDFHK (UniProt Q9HAJ7),-0.136,-0.122
SART3_Q15020_537_AVQCTSDYPEHVCEVLLTMER (UniProt Q15020),0.135,-0.211
SCFD2_Q8WU76_54_LLEAVGGPDCHLR (UniProt Q8WU76),0.23,0.0601
SENP6_Q9GZR1_972_QPCILLMDSLR (UniProt Q9GZR1),-0.191,0.123
SCYL1_Q96KG9_309_SLDAFPEDFCR (UniProt Q96KG9),-0.151,-0.00911
SCLT1_Q96NL6_506_LQNVLESERENCGLVSEQR (UniProt Q96NL6),-0.159,0.0107
SDK1_Q7Z5N4_1538_GEWQTYSSSISHEATACVVDR (UniProt Q7Z5N4),0.117,-0.13
SEC16A_O15027_1293_YWCDAEYDAYR (UniProt O15027),-0.117,-0.311

# Not a retest: an excerpt of the list.
Target,probe-labelled cysteine peptide fold change (10 µM),probe-labelled cysteine peptide fold change (50 µM)
SEC63_Q9UGP8_295_NEPPLTCPYSLK (UniProt Q9UGP8),-0.101,-0.151
SEH1L_Q96EE3_49_SESGDWHCTASWK (UniProt Q96EE3),0.19,-0.0142
SEC24B_O95487_1103_VYAMCQIK (UniProt O95487),-0.00811,0.0235

# The list goes on:

Target,probe-labelled cysteine peptide fold change (10 µM),probe-labelled cysteine peptide fold change (50 µM)
SDF2_Q99470_137_NLHSHHFTSPLSGNQEVSAFGEEGEGDYLDDWTVLCNGPYWVR (UniProt Q99470),0.298,0.622
SBDS_Q9Y3A5_84_EDLISAFGTDDQTEICK (UniProt Q9Y3A5),-0.0659,0.0352
SCCPDH_Q8NBX0_238_RWPISYCR (UniProt Q8NBX0),-0.106,-0.146
SAR1B_Q9Y6B6_178_ELNARPLEVFMCSVLK (UniProt Q9Y6B6),-0.0793,-0.0345
SEC24C_P53992_1083_SLSGGASYVDFLCHMHK (UniProt P53992),-0.00365,-0.0895
SEMA4D_Q92854_370_PRPGACIDSEAR (UniProt Q92854),0.0249,0.0269
SEC23B_Q15437_61_ERPDLPPVQYEPVLCSRPTCK (UniProt Q15437),-0.0466,0.0389
SCYL2_Q6P3W7_511_VNSLVCLGK (UniProt Q6P3W7),-0.17,0.0145
SDHA_P31040_238_GVIALCIEDGSIHR (UniProt P31040),0.141,0.0837
SCML2_Q9UQR0_559_SSSLNSGNYLNPACR (UniProt Q9UQR0),-0.148,-0.14
SEH1L_Q96EE3_133_HMGLMLATCSADGIVR (UniProt Q96EE3),-0.0651,0.223
SEH1L_Q96EE3_77_VTWAHPEFGQVLASCSFDR (UniProt Q96EE3),0.357,0.437
SEC24C_P53992_832_IHNLALNCCTQLADLYR (UniProt P53992),0.309,0.237
SATB1_Q01826_529_SQGWLCELLR (UniProt Q01826),-0.148,-0.147
SDHA_P31040_438+443_HVNGQDQIVPGLYACGEAACASVHGANR (UniProt P31040),-0.0485,-0.385
SBNO1_A3KN83_1277_VVSDDALMHWLDQYNSSADTCTHAYWR (UniProt A3KN83),0.0166,0.0228
SAR1A_Q9NR31_178_ELNARPMEVFMCSVLK (UniProt Q9NR31),-0.219,-0.202
SEC24D_O94855_853_NCVLLSRPEISTDER (UniProt O94855),0.108,0.0493
SAR1B_Q9Y6B6_178_PLEVFMCSVLK (UniProt Q9Y6B6),0.0453,-0.0532
SEC24D_O94855_390_YQCGFCNCVNDVPPFYFQHLDHIGR (UniProt O94855),0.193,0.41
SEC24C_P53992_493_RVDAYDRPELSLGSYEFLATVDYCK (UniProt P53992),-0.123,0.0859

Target,probe-labelled cysteine peptide fold change (10 µM),probe-labelled cysteine peptide fold change (50 µM)
SCRIB_Q14160_334_NHLEALPPEIGGCVALSVLSLR (UniProt Q14160),-0.0211,0.199
SCAF8_Q9UPN6_1170_DRDDRDFDFCR (UniProt Q9UPN6),-0.00849,-0.163
SDF2L1_Q9HCN8_92_GGSEGGCPR (UniProt Q9HCN8),0.0108,0.00687
SEC24D_O94855_573_AADCPGK (UniProt O94855),-0.028,0.0681
SCML2_Q9UQR0_121_LVDSPDIQPVGTCEK (UniProt Q9UQR0),0.0247,-0.0594
SEC31A_O94979_173_TQPPEDISCIAWNR (UniProt O94979),-0.0768,0.0339
SELENOF_O60613_73_GCCQEEAQFETK (UniProt O60613),-0.00801,0.19
SAMM50_Q9Y512_403_THFFLNAGNLCNLNYGEGPK (UniProt Q9Y512),0.0447,0.0425
SART3_Q15020_821_EELEEICK (UniProt Q15020),0.177,0.153
SART3_Q15020_812_LFISGLPFSCTK (UniProt Q15020),-0.0453,-0.125
SEC24D_O94855_371_AYMCPFMQFIEGGR (UniProt O94855),-0.0221,-0.184
SEC23IP_Q9Y6Y8_457_GIDDNLDEIPDGEMPQVDHLVFVVHGIGPVCDLR (UniProt Q9Y6Y8),-0.0245,-0.00477
SEL1L_Q9UBV2_141_EYDECTSDGREDGR (UniProt Q9UBV2),0.0147,-0.0218
SEC13_P55735_77_GHEGPVWQVAWAHPMYGNILASCSYDR (UniProt P55735),-0.107,-0.123
SATB2_Q9UPW6_195_ECPLSQSMISSIVNSTYYANVSATK (UniProt Q9UPW6),0.34,0.324
SEC63_Q9UGP8_671_EQTLISMPYHVCTLK (UniProt Q9UGP8),0.245,0.139
SEL1L_Q9UBV2_539_SCHTAVELFK (UniProt Q9UBV2),0.21,-0.0684
SEC16A_O15027_1293_YWCDAEYDAYRR (UniProt O15027),-0.000498,-0.22
SEC24D_O94855_1021_GLYGGSSYVDFLCCVHK (UniProt O94855),0.0192,0.0317
SART3_Q15020_527_AHGDTQHCR (UniProt Q15020),0.0106,0.00251
SCML2_Q9UQR0_51_ETGSISAPSECFR (UniProt Q9UQR0),-0.024,-0.163

# Looked up one by one from the entries so far (two):
Target,probe-labelled cysteine peptide fold change (10 µM),probe-labelled cysteine peptide fold change (50 µM)
SEC16A_O15027_1293_YWCDAEYDAYR (UniProt O15027),-0.117,-0.311
SEC24B_O95487_1103_VYAMCQIK (UniProt O95487),-0.00811,0.0235

# Remaining list, next part

Target,probe-labelled cysteine peptide fold change (10 µM),probe-labelled cysteine peptide fold change (50 µM)
SEC62_Q99442_55_AVDCLLDSK (UniProt Q99442),-0.122,-0.249
SEC24C_P53992_816_LNEESGALLQCALLYTSCAGQR (UniProt P53992),0.24,0.205
SEC23B_Q15437_434_GPCVSENELGVGGTSQWK (UniProt Q15437),0.0914,0.096
SEC13_P55735_245_VFIWTCDDASSNTWSPK (UniProt P55735),-0.245,-0.0321
SATB1_Q01826_91_GTMLPVFCVVEHYENAIEYDCKEEHAEFVLVR (UniProt Q01826),-0.0302,-0.135
SCML2_Q9UQR0_324_EKPLPVICSTSAASLK (UniProt Q9UQR0),-0.0018,-0.148
SCFD2_Q8WU76_236_EECFAVGSLSQVIAADLANYAPAK (UniProt Q8WU76),-0.13,-0.0185
SEC31A_O94979_60_SCATFSSSHR (UniProt O94979),0.132,-0.143
SBF1_O95248_896_LLPGEECVLDGLR (UniProt O95248),0.00923,-0.0319
SCAF8_Q9UPN6_475_TLSVCSTTLWVGQVDKK (UniProt Q9UPN6),-0.0995,-0.107
SAMM50_Q9Y512_65_DDIIICEIGDVFK (UniProt Q9Y512),0.186,-0.000637
SCYL3_Q8IZE3_184_SIQSIRDPASIPPEEMSPEFTTLPECHGHAR (UniProt Q8IZE3),0.199,0.088
SEC23B_Q15437_61+66_ERPDLPPVQYEPVLCSRPTCK (UniProt Q15437),-0.218,-0.289
SCYL3_Q8IZE3_71_FLSCTVEADGIHLVTER (UniProt Q8IZE3),0.0304,-0.0732
SEPSECS_Q9HD40_262_CMHLIQQGAR (UniProt Q9HD40),-0.0253,-0.0292
SEC24B_O95487_1267_TEAAFSYYEFLLHVQQQICK (UniProt O95487),0.224,0.163
SEL1L_Q9UBV2_153_LWCATTYDYK (UniProt Q9UBV2),-0.0117,0.0985
SEC24C_P53992_910_LLPVYLNCVLK (UniProt P53992),-0.0462,-0.0543
SATB1_Q01826_78_GTMLPVFCVVEHYENAIEYDCKEEHAEFVLVR (UniProt Q01826),-0.0745,0.0094
SAMM50_Q9Y512_65_TKDDIIICEIGDVFK (UniProt Q9Y512),-0.0176,0.105
